These are yes or no findings as the source states them, for the method shown. Binding can be weak; no strength is given.
Biological target: recombinant rat arrestin-2 (rat) (UniProt P29066)
Test: NMR titration

By UniProt entry, the sequences of proteins in these tests, tags left out. Where a name states a change or a piece, a line headed by the entry shows the natural chain unless it says otherwise.
UniProt P29066: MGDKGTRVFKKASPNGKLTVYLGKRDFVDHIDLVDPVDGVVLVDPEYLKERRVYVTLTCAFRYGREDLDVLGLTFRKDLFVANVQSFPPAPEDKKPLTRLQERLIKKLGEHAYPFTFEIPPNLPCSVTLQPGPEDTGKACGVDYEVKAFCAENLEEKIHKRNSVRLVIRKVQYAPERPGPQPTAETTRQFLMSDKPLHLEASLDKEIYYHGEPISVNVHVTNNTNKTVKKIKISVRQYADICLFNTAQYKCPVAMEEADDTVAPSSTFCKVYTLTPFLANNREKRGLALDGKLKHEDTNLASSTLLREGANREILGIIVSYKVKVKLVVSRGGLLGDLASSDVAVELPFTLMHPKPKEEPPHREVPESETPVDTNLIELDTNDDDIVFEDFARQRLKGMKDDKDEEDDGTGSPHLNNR
UniProt Q92847: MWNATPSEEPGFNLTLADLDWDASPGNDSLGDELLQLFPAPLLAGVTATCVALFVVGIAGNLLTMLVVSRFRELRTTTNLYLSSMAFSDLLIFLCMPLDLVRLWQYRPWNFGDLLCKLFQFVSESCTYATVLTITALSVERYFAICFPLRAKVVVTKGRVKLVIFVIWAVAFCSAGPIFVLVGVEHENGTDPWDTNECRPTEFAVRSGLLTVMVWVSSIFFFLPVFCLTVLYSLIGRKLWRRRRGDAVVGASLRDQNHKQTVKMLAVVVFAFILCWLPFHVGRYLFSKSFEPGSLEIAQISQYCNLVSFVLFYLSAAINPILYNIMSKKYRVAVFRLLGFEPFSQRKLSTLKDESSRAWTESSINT

binding: binds
Substance: phosphomimetic GHSR C-terminus (from UniProt Q92847) (domain or fragment)

— publication doi:10.1101/2023.02.23.529712
